Source: patent publication US20210332126A1
These are yes or no findings as the source states them, for the method shown. Some entries that bind do so weakly or less than the wild type.

Protein sequences, listed by entry. Tags and fused reporters are not part of them. Lines headed by an entry give the natural chain unless they say otherwise; changes in a name come on top.
UniProt P05231: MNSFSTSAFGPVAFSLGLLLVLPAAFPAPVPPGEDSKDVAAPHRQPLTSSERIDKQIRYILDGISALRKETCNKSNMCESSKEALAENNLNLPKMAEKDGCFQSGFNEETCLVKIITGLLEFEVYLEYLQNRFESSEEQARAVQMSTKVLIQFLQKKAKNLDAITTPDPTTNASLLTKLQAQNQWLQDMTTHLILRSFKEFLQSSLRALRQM

Biological target: Human IL-6 (human) (UniProt P05231)
Assay: bio-layer interferometry (Octet QK), antibody on anti-human IgG1 Fc sensor

Binder | binding
Ab2 (antibody, V domains shown) VH: QEQLKESGGRLVTPGTPLTLTCTASGFSLNDHAMGWVRQAPGKGLEYIGFINSGGSARYASWAEGRFTISRTSTTVDLKMTSLTTEDTATYFCVRGGAVWSIHSFDPWGPGTLVTVSS VL: AYDMTQTPASVEVAVGGTVTINCQASETIYSWLSWYQQKPGQPPKLLIYQASDLASGVPSRFSGSGAGTEYTLTISGVQCDDAATYYCQQGYSGSNVDNVFGGGTEVVVKR | binds
Ab3 (antibody, V domains shown) VH: QSLEESGGRLVTPGTPLTLTCTASGFSLSVYYMNWVRQAPGKGLEWIGFITMSDNINYASWAKGRFTISKTSTTVDLKMTSPTTEDTATYFCARSRGWGTMGRLDLWGPGTLVTVSS VL: AAVLTQTPSPVSAAVGGTVSISCQASQSVYDNNYLSWFQQKPGQPPKLLIYGASTLASGVPSRFVGSGSGTQFTLTITDVQCDDAATYYCAGVYDDDSDNAFGGGTEVVVKR | binds
Ab4 (antibody, V domains shown) VH: QEQLKESGGGLVTPGGTLTLTCTASGFSLNAYYMNWVRQAPGKGLEWIGFITLNNNVAYANWAKGRFTFSKTSTTVDLKMTSPTPEDTATYFCARSRGWGAMGRLDLWGHGTLVTVSS VL: DPVLTQTPSPVSAPVGGTVSISCQASQSVYENNYLSWFQQKPGQPPKLLIYGASTLDSGVPSRFKGSGSGTQFTLTITDVQCDDAATYYCAGVYDDDSDDAFGGGTEVVVKR | binds
Ab6 (antibody, V domains shown) VH: QSVEESGGRLVTPGTPLTLTCTVSGIDLSDYAMSWVRQAPGKGLEWIGIIYAGSGSTWYASWAKGRFTISKTSTTVDLKITSPTTEDTATYFCARDGYDDYGDFDRLDLWGPGTLVTVSS VL: AAVLTQTPSPVSVPVGGTVTIKCQSSQSVYNNFLSWYQQKPGQPPKLLIYQASKLASGVPDRFSGSGSGTQFTLTISGVQCDDAATYYCLGGYDDDADNAFGGGTEVVVKR | binds
Ab7 (antibody, V domains shown) VH: QSLEESGGRLVTPGTPLTLTCTASGFSLSNYYMTWVRQAPGKGLEWIGMIYGSDETAYANWAIGRFTISKTSTTVDLKMTSLTAADTATYFCARDDSSDWDAKFNLWGQGTLVTVSS VL: AYDMTQTPASVSAAVGGTVTIKCQASQSINNELSWYQQKSGQRPKLLIYRASTLASGVSSRFKGSGSGTEFTLTISDLECADAATYYCQQGYSLRNIDNAFGGGTEVVVKR | binds
